The hits were mostly taken out for another list; the other results follow. Active and inactive are the calls of the source. Calls follow the shape of the dose curve; as a rule, active = well fitted activation curve with a large enough effect; inconclusive = small, poorly fitted or top-dose-only effect; inactive = no such curve, though single readings can be large or run the other way.
What follows are molecules tested against Galactocerebrosidase (Homo sapiens) (UniProt P54803) (assay: A Novel Cell-Based Assay to Identify Small Molecules for B -Galactocerebrosidase). Settings: 145M-Twi-hGALC-G270D cells (Twitcher mouse brain line with human GALC G270D), HMU-beta-Gal fluorescence, 48 h; at 57.5 µM (top of the series).
Source text: Lysosomal storage diseases (LSDs) are caused by genetic mutations in genes encoding proteins important for normal lysosomal function. Globoid cell leukodystrophy (GLD), mostly known as Krabbe disease, is a prototype of the neurological LSDs caused by deficiency of beta-galactocerebrosidase (GALC). In brain specimens of GLD patients, psychosine levels are substantially elevated. At elevated concentrations, psychosine becomes cytotoxic to neuronal cells, particularly to oligodendrocytes (OLG), neural cells responsible for myelin formation. Therefore, the biochemical disturbances in GLD are manifested by different degrees of brain demyelination resulting in a broad spectrum of neurological manifestations. Most of the FDA-approved therapies are based on enzyme replacement therapeutic (ERT) agents, which treat non-neurological symptoms of Gaucher disease, Fabry disease, few mucopolysaccharidoses and Pompe disease. […]
A cell-based assay in 1,536-well plate format was developed to implement a quantitative high-throughput screening (qHTS) assay using GLD-disease relevant cells to identify small molecules that produce enhancements of the residual enzymatic activity levels of mutants GALC found and prevalent in GLD patients. […] After the treatment of live cells for a determined period, using a fluorescent GALC specific substrate, the mutant residual GALC activity is measured. […]
Also: 0% is about no effect; nearly all actives have a fitted effect of over 65% in size.

By UniProt entry, the sequences of proteins in these tests, tags left out. Where a name states a change or a piece, a line headed by the entry shows the natural chain unless it says otherwise.
UniProt P54803: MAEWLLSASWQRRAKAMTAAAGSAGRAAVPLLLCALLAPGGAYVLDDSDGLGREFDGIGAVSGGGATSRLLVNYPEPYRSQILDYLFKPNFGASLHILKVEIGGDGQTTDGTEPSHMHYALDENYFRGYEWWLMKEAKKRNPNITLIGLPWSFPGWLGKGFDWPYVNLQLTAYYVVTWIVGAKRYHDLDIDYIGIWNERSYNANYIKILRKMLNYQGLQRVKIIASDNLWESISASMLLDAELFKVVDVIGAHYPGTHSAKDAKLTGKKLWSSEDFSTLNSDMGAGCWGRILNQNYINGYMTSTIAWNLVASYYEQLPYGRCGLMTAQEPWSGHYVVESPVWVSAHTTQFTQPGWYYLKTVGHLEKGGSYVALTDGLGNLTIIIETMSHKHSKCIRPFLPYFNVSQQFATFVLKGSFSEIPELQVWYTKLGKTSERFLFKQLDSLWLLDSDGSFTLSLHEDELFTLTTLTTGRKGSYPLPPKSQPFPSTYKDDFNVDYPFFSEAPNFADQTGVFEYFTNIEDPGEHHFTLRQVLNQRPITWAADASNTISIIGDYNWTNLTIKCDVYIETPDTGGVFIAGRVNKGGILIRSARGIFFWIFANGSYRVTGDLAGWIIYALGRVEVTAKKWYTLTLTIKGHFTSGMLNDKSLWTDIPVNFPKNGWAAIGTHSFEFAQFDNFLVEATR

Row | Structure (SMILES) | activation
1 | CC(C)(C)c1ccc(O)cc1 | inactive: -10.1%
